These results are taken from US20150004636A1, “NEURONAL BIOSENSOR FOR DETECTION OF TOXINS” (priority 2011, published 2015).

The subject of this series is DRG neurons. Description: Fluorescence spectroscopy of FM 4-64 labeled DRG neurons. In kind it is cell-based, chick. As to the method: For spectroscopy experiments, DRG neurons were grown on 11×22 mm plastic coverslips that were treated with Alconox and coated with Type VII rat tail collagen, using the same methods that were mentioned previously. Cells were plated with ˜15×10^4 cells in each 35 mm tissue culture dish containing one plastic coverslip. The cells were incubated in 5% CO2 at 37° C. for 2 days before experiments began.
Before scanning the cell samples, the coverslip was mounted into a coverglass holder and was held inside a cuvette at a 45° angle from the light source and the photo detector. The coverglass holder was placed in a cuvette containing 1×HBSS to rinse the media from the cells prior to the experiments. For the spectroscopy experiments, the coverglass holder was placed in the cuvette that was filled with either 1×HBSS or stimulating solutions. The orientation of the coverglass in the cuvette was situated so that the cell surface was facing the light source and photodetector, both at 45° angles. For experiments using FM® 4-64, scan were conducted using a HORIBA Jobin Yvon FluoroLog®-3 spectrofluorometer with an excitation wavelength of 558 nm and an emission range was detected from 566 to 750 nm. The slit width for excitation and emission was 3 nm and data was collected every 0.2 sec, once for each wavelength. Fluorescence intensity was detected in counts per second (cps). The data was transferred into MS Excel and analyzed using Matlab.
In Matlab, the maximum intensity of each scan was found for the emission wavelength range of interest and the ratio of the maximum emission intensities was taken between non-labeled, non-stimulated cells and FM®-labeled cells before and after stimulation. This ratio was used to determine the difference in fluorescence, and therefore the amount of stained membranes present in the sample before and after stimulation with ionomycin.
To determine whether a change in fluorescence of FM®-labeled neurons could be measured, the cells were stained and stimulated using the same methods mentioned above. Four emission scans were performed: a control scan of the non-labeled neurons in HBSS, a scan of the FM®-labeled neurons in HBSS, a scan of the FM® labeled neurons in ionomycin 5 min after initial stimulation, and a scan of the post stimulated, FM®-labeled neurons in 1×HBSS wash. The cells were rinsed with warm 1×HBSS before each scan, and the cells were stimulated for a total of 10 min before rinsed with 1×HBSS for the fourth scan. The ratio of fluorescence intensities of non-labeled neurons to FM®-labeled neurons, FM®-labeled ionomycin-stimulated neurons, and FM®-labeled ionomycin-stimulated rinsed neurons in Table 5.

Setting [1] is: FM-labeled neurons in HBSS, before stimulation.

As to `CCN(CC)c1ccc(/C=C/C=C/C=C/c2cc[n+](CCC[N+](CC)(CC)CC)cc2)cc1.[Br-].[Br-]` [FM® 4-64], the “shift of peak emission wavelength up from non-labeled neuron scans” value was 7-9 nm. For the same compound, for the setting “FM-labeled neurons in HBSS vs non-labeled neurons”, the “Ratio of Fluorescence Intensities at 667 nm” value stood at 1.85. Besides, under setting [1], the “Fluorescence Intensity at 667 nm” value is 2975 cps and the “Fluorescence Intensity at Peak Emission Wavelength” value came to 3098 cps. Further, the “Peak Emission Wavelength” value (FM-labeled neurons in HBSS, before stimulation, excitation 558 nm) is reported as 674 nm.

Take `C[C@H](CCC(=O)O)C[C@H](C)C[C@H](C)C(=O)/C=C(\O)[C@H](C)C[C@H](C)C/C=C/[C@@H](C)[C@@H](O)[C@@H](C)[C@@H](O)C[C@@H]1CC[C@@](C)([C@H]2CC[C@@](C)([C@@H](C)O)O2)O1` [ionomycin]: the “shift of peak emission wavelength up from non-labeled neuron scans” value is 15-19 nm.
